Measurements reported in PubChem BioAssay AID504444 (National Center for Advancing Translational Sciences (NCATS), 2011).
Where “and” joins values, the source holds several entries; their conditions need not be identical. Equal entries are not always repeated. In all, about 360,000 compounds went through this assay and about 7,500 (2.1%) were called active. The inconclusive results got no clear call from the source; some entries with a clear call stand among them for comparison. Calls come from the whole dose curve; as a rule, active = well fitted inhibition curve with a large enough effect; inconclusive = small, poorly fitted or top-dose-only effect, or effect the other way; inactive = flat fitted curve, though single readings scatter. Where the call is inconclusive, the potency comes from a doubtful curve fit.

experiment: Nrf2 qHTS screen for inhibitors; details: A549 ARE-Fluc reporter, luciferase luminescence, 18-24 h; activity change, negative = inhibition: at 46 µM (top of the series); note: nearly all actives have a fitted effect of over 60% in size
In short: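 Reporter: ARE-Fluc in A549. Exposure: 18-24 h, 37 °C, 5% CO2, 5% FBS OPTI-MEM. Readouts: fluorescent cytotoxicity (CellTiter-Fluor), then luminescent Nrf2 signal after BugLite.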
% is set by controls: 0 for no effect and ±100 for the full control effect; potency is the fitted concentration of half-maximal effect.

SMILES	Potency	activity change, negative = inhibition
COc1ccc(CNC(=O)Nc2cc(C)ccc2C)cc1	inconclusive: 2.31 µM [falling, partial curve, poor fit]	
O=C(Oc1ccccc1/C=C\C(=O)c1cc2ccccc2o1)c1cccc(F)c1	inconclusive: 29.1 µM [activator, single point]	
CC(C)N1C(=O)S/C(=C\c2ccc(-c3ccc(Cl)c(C(=O)O)c3)o2)C1=O	inconclusive: 1.46 µM [activator, full curve]	
COC(=O)C1=C(N)Oc2cc(C)n(Cc3ccco3)c(=O)c2C1c1cccc(Cl)c1 (stereo not given)	inconclusive: 29.1 µM [falling, single point]	
O=C(Nc1cccc(NC(=O)c2ccc(Br)o2)c1)c1ccccc1	inconclusive: 29.1 µM [falling, single point]	
Cc1cccc(-c2noc(-c3cccnc3NCc3ccco3)n2)c1	inconclusive: 23.1 µM [falling, single point]	
COc1ccc(CNC(=O)CS(=O)(=O)Cc2nc(-c3cccc(OC)c3)oc2C)cc1	inconclusive: 25.9 µM [falling, single point]	
CN(C)S(=O)(=O)N1CCN(CC(O)COc2ccc(-c3ccccc3)cc2)CC1 (stereo not given)		inactive: -29.5%
CCN(CC)CCCNc1nc2cc(OC)c(OC)cc2c2nc(-c3cccnc3)nn12		inactive: 19.4%
COc1ccc(-n2c(=O)c3c4c(sc3n(Cc3cc(C)ccc3C)c2=O)CN(C(C)=O)CC4)c(OC)c1	inconclusive: 29.1 µM [falling, single point]	
CC1=[N+]([O-])C(N2CCOCC2)C(O)(c2ccccc2)C1 (stereo not given)	inconclusive: 11.6 µM [activator, partial curve, poor fit]	
Cc1ccc(CNc2nc3ccccc3n3c(C)nnc23)cc1	inconclusive: 13 µM [falling, partial curve, poor fit]	
CCCCCNC(=O)c1ccc2c(=O)n(CCOC)c(=O)[nH]c2c1		inactive: 2.4%
CC(=O)N1c2ccc(S(=O)(=O)NCCC(=O)NCc3ccc(Cl)cc3)cc2CC1C (stereo not given)	inconclusive: 16.4 µM [falling, partial curve, poor fit]	
CCOc1ccccc1Nc1nnc(SCc2nnc(-c3cc(OC)c(OC)c(OC)c3)o2)s1	active: 16.4 µM	
O=C(CCCN1C(=O)/C(=C/c2ccccc2Cl)SC1=S)NNC(=O)c1ccccc1Cl	active: 18.4 µM	
Cc1ccc(C)c(C(=O)Nc2ccncc2)c1	inconclusive: 14.6 µM [falling, partial curve, poor fit]	
Cc1cccc(-c2noc(CN(C(=O)c3ccccc3Cl)C(C)C)n2)c1	inconclusive: 29.1 µM [falling, single point]	
COc1ccc(-c2nc3cc(NC(=O)Cc4ccc(OC)c(OC)c4)ccc3o2)cc1	active: 14.6 µM	
Cc1ccc(CNC(=O)C2CCCC2)cc1	inconclusive: 13 µM [activator, partial curve, poor fit]	
COc1ccc(/C=C/C(=O)c2ccccc2)cc1Cn1nnc2ccccc21	inconclusive: 20.6 µM [falling, partial curve, poor fit]	
COc1ccc(-c2cc(=O)oc3cc4occ(C)c4cc23)cc1	inconclusive: 23.1 µM [falling, single point]	

SMILES	Potency	activity change, negative = inhibition
CC1CCN(S(=O)(=O)c2ccc(C(=O)Nc3sccc3C(N)=O)cc2)CC1	inconclusive: 14.6 µM [falling, partial curve, poor fit]	
Cc1ccc(CNC(=O)C(=O)NCCC2CCCCN2S(=O)(=O)c2ccc(C)cc2)cc1 (stereo not given)	inconclusive: 32.6 µM [falling, single point]	
Cc1cccc(N2CCN(C(=O)COc3cc(=O)n(C)c4ccccc34)CC2)c1C	inconclusive: 20.6 µM [falling, partial curve, poor fit]	
CCn1ccnc1CN1CCCC(C(=O)c2ccc3c4c(cccc24)CC3)C1 (stereo not given)	inconclusive: 5.17 µM [falling, partial curve, poor fit]	
COc1ccc(/C=N\NC(=O)c2ccc(F)cc2)cc1COc1cc(F)ccc1[N+](=O)[O-]	inconclusive: 13 µM [falling, partial curve]	
CCC(C)NCc1ccc(C(=O)OC)o1 (stereo not given)		inactive: -13.1%
Cc1cccc(NC(=S)N(CCN2CCOCC2)Cc2ccccc2F)c1	inconclusive: 9.2 µM [falling, partial curve, poor fit]	
O=C(CN1c2cccc3cccc(c23)S1(=O)=O)Nc1ccccc1F		inactive: 2.93%
COc1ccc(CNC(=O)c2c(C)oc3c2C(=O)c2ccccc2C3=O)cc1	active: 4.11 µM	
COc1ccc(NS(=O)(=O)c2cc(Br)cc3c2N(C(C)=O)CC3)cc1	inconclusive: 29.1 µM [falling, single point]	
Cc1cc2oc(=O)c(CC(=O)O)c(C)c2c2occ(-c3ccc(F)cc3)c12	inconclusive: 20.6 µM [activator, single point]	
CN(c1ccc(F)cc1)S(=O)(=O)c1ccc(Cl)c(C(=O)Nc2ccc3c(c2)CCC3)c1	inconclusive: 16.4 µM [falling, partial curve, poor fit]	
CC(C)(Oc1ccc(Cl)cc1)C(=O)O/N=C(\N)c1ccncc1	inconclusive: 18.4 µM [falling, partial curve, poor fit]	
Cc1ccc(NC(=O)COc2ccc(/C=N/NC(=O)CSCc3ccccc3)cc2)cc1	inconclusive: 25.9 µM [falling, partial curve, poor fit]	
O=C(Nc1ccc(F)cc1)c1cc(-c2ccccn2)nc2c(Cl)cccc12	inconclusive: 23.1 µM [falling, single point]	
Cc1ccc(-n2ncc(C(=O)NCCCN3CCN(c4cccc(Cl)c4)CC3)c2-n2cccc2)cc1		inactive: 15.4%
CCc1cc2c(=O)c(-c3ccc4c(c3)OCO4)coc2c(CN(C)C)c1O		inactive: -1.11%
O=C(COC(=O)c1ccc(F)cc1F)NC(=O)Nc1ccc2c(c1)OCCO2	inconclusive: 29.1 µM [activator, single point]	
COc1ccc(/C=N/NC(=O)c2cccnc2)cc1COc1ccc([N+](=O)[O-])c(C)c1	inconclusive: 20.6 µM [falling, single point]	
O=C/C=C/c1c(-c2ccccc2)cc2oc3ccccc3cc1-2	inconclusive: 16.4 µM [activator, partial curve, poor fit]	
CC1CCN(S(=O)(=O)c2ccc(NC(=O)CN3C(=O)NC(C)(c4ccccc4)C3=O)cc2)CC1 (stereo not given)	inconclusive: 29.1 µM [falling, single point]	
O=S(=O)(c1ccccc1Cl)N1CCCC(c2nc(-c3cccnc3)no2)C1 (stereo not given)	active: 25.9 µM	

A section of the results above, as a working copy:
SMILES	Potency	activity change, negative = inhibition
Cc1cccc(N2CCN(C(=O)COc3cc(=O)n(C)c4ccccc34)CC2)c1C	inconclusive: 20.6 µM [falling, partial curve, poor fit]	
CCn1ccnc1CN1CCCC(C(=O)c2ccc3c4c(cccc24)CC3)C1 (stereo not given)	inconclusive: 5.17 µM [falling, partial curve, poor fit]	
COc1ccc(/C=N\NC(=O)c2ccc(F)cc2)cc1COc1cc(F)ccc1[N+](=O)[O-]	inconclusive: 13 µM [falling, partial curve]	
CCC(C)NCc1ccc(C(=O)OC)o1 (stereo not given)		inactive: -13.1%
Cc1cccc(NC(=S)N(CCN2CCOCC2)Cc2ccccc2F)c1	inconclusive: 9.2 µM [falling, partial curve, poor fit]	
O=C(CN1c2cccc3cccc(c23)S1(=O)=O)Nc1ccccc1F		inactive: 2.93%
COc1ccc(CNC(=O)c2c(C)oc3c2C(=O)c2ccccc2C3=O)cc1	active: 4.11 µM	
COc1ccc(NS(=O)(=O)c2cc(Br)cc3c2N(C(C)=O)CC3)cc1	inconclusive: 29.1 µM [falling, single point]	
Cc1cc2oc(=O)c(CC(=O)O)c(C)c2c2occ(-c3ccc(F)cc3)c12	inconclusive: 20.6 µM [activator, single point]	
CN(c1ccc(F)cc1)S(=O)(=O)c1ccc(Cl)c(C(=O)Nc2ccc3c(c2)CCC3)c1	inconclusive: 16.4 µM [falling, partial curve, poor fit]	
CC(C)(Oc1ccc(Cl)cc1)C(=O)O/N=C(\N)c1ccncc1	inconclusive: 18.4 µM [falling, partial curve, poor fit]	
Cc1ccc(NC(=O)COc2ccc(/C=N/NC(=O)CSCc3ccccc3)cc2)cc1	inconclusive: 25.9 µM [falling, partial curve, poor fit]	
O=C(Nc1ccc(F)cc1)c1cc(-c2ccccn2)nc2c(Cl)cccc12	inconclusive: 23.1 µM [falling, single point]	
Cc1ccc(-n2ncc(C(=O)NCCCN3CCN(c4cccc(Cl)c4)CC3)c2-n2cccc2)cc1		inactive: 15.4%
CCc1cc2c(=O)c(-c3ccc4c(c3)OCO4)coc2c(CN(C)C)c1O		inactive: -1.11%
O=C(COC(=O)c1ccc(F)cc1F)NC(=O)Nc1ccc2c(c1)OCCO2	inconclusive: 29.1 µM [activator, single point]	
COc1ccc(/C=N/NC(=O)c2cccnc2)cc1COc1ccc([N+](=O)[O-])c(C)c1	inconclusive: 20.6 µM [falling, single point]	
O=C/C=C/c1c(-c2ccccc2)cc2oc3ccccc3cc1-2	inconclusive: 16.4 µM [activator, partial curve, poor fit]	
CC1CCN(S(=O)(=O)c2ccc(NC(=O)CN3C(=O)NC(C)(c4ccccc4)C3=O)cc2)CC1 (stereo not given)	inconclusive: 29.1 µM [falling, single point]	
O=S(=O)(c1ccccc1Cl)N1CCCC(c2nc(-c3cccnc3)no2)C1 (stereo not given)	active: 25.9 µM	

Next structures

SMILES	Potency	activity change, negative = inhibition
Cc1ccc2c(Cl)c(C(=O)NC3CC3)sc2c1	inconclusive: 7.31 µM [activator, partial curve]	
O=C(c1nn(Cc2ccccc2)c(=O)c2ccccc12)N1CCc2ccccc2C1	active: 23.1 µM	
NC(=O)COC(=O)c1cc(Cl)cc(Cl)c1N		inactive: -0.286%
CCCc1cc(=O)[nH]c(=S)[nH]1		inactive: 5.77%
Cc1ccc(CNc2nc3ccccc3c3nc(-c4cccc(C)c4)nn23)cc1	inconclusive: 10.3 µM [activator, partial curve]	
COc1ccccc1NS(=O)(=O)c1cc(NC(=O)c2sccc2C)ccc1N1CCCC1	inconclusive: 16.4 µM [falling, partial curve, poor fit]	
Cc1nn(C(C)(C)C)c(OC(=O)c2cccs2)c1S(=O)(=O)c1ccccc1	inconclusive: 29.1 µM [falling, single point]	
COc1ccc(NC(=O)c2ccc(Oc3ncccn3)cc2)cc1	inconclusive: 10.3 µM [activator, partial curve, poor fit]	
CN(C(=O)c1coc(=O)c2ccccc12)c1ccc(F)cc1	active: 23.1 µM	
C(=N\Nc1nn2cnnc2c2ccccc12)/c1ccco1	inconclusive: 20.6 µM [falling, single point]	
O=C(Nc1nnc(-c2ccncc2)s1)C1CCCO1 (stereo not given)	inconclusive: 16.4 µM [activator, partial curve, poor fit]	
COc1cccc(C2c3[nH]c4ccccc4c3C[C@H]3C(=O)N(C4CC4)CC(=O)N23)c1 (stereo not given in full)	inconclusive: 5.8 µM [falling, full curve]	
Cc1cccc(CN2CC34C=CC(CC3S2(=O)=O)O4)c1 (stereo not given)		inactive: 21.1%
CCOc1ccccc1NC(=O)c1ccc2[nH]c(C)c(C)c2c1	inconclusive: 1.84 µM [activator, partial curve, poor fit]	
Cc1ccc2c(c1)c1c(c(=O)n(Cc3ccccc3)c(=O)n1Cc1cccc(C(F)(F)F)c1)n2C		inactive: 7.16%
COc1ccc(C(=O)Nc2sc(C)c(C)c2CN2CC(C)OC(C)C2)cc1 (stereo not given)	inconclusive: 4.61 µM [activator, full curve]	
C=C1c2ccccc2NC(=S)N1Cc1ccc2c(c1)OCO2	inconclusive: 11.6 µM [activator, partial curve]	
Cc1ccc(-c2csc(=Nc3ccccc3)n2Cc2ccc3c(c2)OCO3)cc1C	inconclusive: 18.4 µM [activator, partial curve]	
Cc1ccsc1CNc1ncnc2ccc(-c3c(C)noc3C)cc12	inconclusive: 10.3 µM [falling, partial curve, poor fit] and inconclusive: 20.6 µM [falling, partial curve, poor fit]	
O=c1c2ccccc2nc2n1CCC2		inactive: 9.96%
Cc1nn(-c2ccccc2)c(C)c1/C=N/NC(=O)c1ccccc1O	inconclusive: 20.6 µM [activator, single point]	
